Test results from US20070202487A1, “Assay for phospholipidosis” (Cytokinetics, Inc., A Delaware Corporation, priority 2006, published 2007).

System: hepatocytes
Procedure: As described further below, in certain embodiments, the number of bright and/or punctate regions in the lysosomal marker image is used as an indication of phospholipidosis.
An exemplary procedure for preparing hepatocyte cultures will now be described. Specifically, the procedure involves the use of primary rat hepatocytes as follows:
11. Twenty three thousand cells/well are plated in a 96 flat well plate pre-coated with collagen I (BD Biosciences, San Jose, Calif. or CellzDirect, Tucson, Ariz.). The plates are incubated at 37° C./5% CO2 for two hours. At the end of the two hour incubation, plating medium is aspirated and cold Hepatozyme medium containing 250 micrograms/ml of Matrigel (BD Biosciences) is added, and the plates are incubated overnight.
The following example is a procedure for fixing and staining primary rat hepatocytes to visualize nuclei, lysotracker, and Alexa 647 nm succinimidyl ester reagent (A647SE). A647SE is used to segment individual hepatocytes within an image. • 1) At 24 hr after compound addition to cells, 50 ul of Hepatozyme medium (prewarmed to 37° C.) containing 187.5 nM of lysotracker dye is added to each well. […]

Structure (SMILES): CCCCc1oc2ccccc2c1C(=O)c1cc(I)c(OCCN(CC)CC)c(I)c1 [aniodarone, amiodarone]
- proportion of bright/punctate cells (LysoTracker images): increase
